In patent publication US20240201191A1, “CITRULLINATED PROTEINS AS BIOMARKERS AND THERAPY TARGETS FOR CANCER” (BOARD OF REGENTS, THE UNIVERSITY OF TEXAS SYSTEM, priority 2022, published 2024):
Some compounds share one range, which may span the group rather than tell each member.

Each substance was assayed on MDA-MB-468 (TNBC) cells (assay: Cell surface HLA-bound peptidyl-citrullinome by mass spectrometry, MDA-MB-468). Conditions: mild acid elution, LC-MS/MS, FDR=0.01; class by peptide length.
Type: cell-based, human
With “LETADGESMNTEESNQGSTPSDQQQNKLR*SS (LETADGESMNTEESNQGSTPSDQQQNKLRSS; citrulline at R29; MOD_RES (29)..(29) Citrullinated Arginine) [SEQ ID NO: 100, PPPIR2P3 peptide, R29(Cit.)]” the “Cell surface MHC binding citrullinated peptide identified in MDA-MB-468 (TNBC)” value was “MHC-II (from 12 to 34 as MHC-IU binding peptides)”.
For “LIR*KHTGSGILSMANAGPN (LIRKHTGSGILSMANAGPN; citrulline at R3; MOD_RES (3)..(3) Citrullinated Arginine) [SEQ ID NO: 96, PPIAL4E peptide, R3(Cit.)]”, the “Cell surface MHC binding citrullinated peptide identified in MDA-MB-468 (TNBC)” value was “MHC-II (from 12 to 34 as MHC-IU binding peptides)”.
“LIR*KHTGSGILSMANAGPNINGSQF [SEQ ID NO: 94]” was tested, and the “Cell surface MHC binding citrullinated peptide identified in MDA-MB-468 (TNBC)” value was “MHC-II (from 12 to 34 as MHC-IU binding peptides)”.
With “LIR*KHTGSGILSMANAGPNINGSQFF [SEQ ID NO: 93]” the “Cell surface MHC binding citrullinated peptide identified in MDA-MB-468 (TNBC)” value was “MHC-II (from 12 to 34 as MHC-IU binding peptides)”.
For “LLKNGER*IEKVEHSDLSFSKDWS (LLKNGERIEKVEHSDLSFSKDWS; citrulline at R7; MOD_RES (7)..(7) Citrullinated Arginine) [SEQ ID NO: 10, B2M peptide, R7(Cit.)]”, the “Cell surface MHC binding citrullinated peptide identified in MDA-MB-468 (TNBC)” value was “MHC-II (from 12 to 34 as MHC-IU binding peptides)”.
In the case of “LLVTGAVDCSLRGWDLR*N (LLVTGAVDCSLRGWDLRN; citrulline at R17; MOD_RES (17)..(17) Citrullinated Arginine) [SEQ ID NO: 79, PEX7 peptide, R17(Cit.)]”, the “Cell surface MHC binding citrullinated peptide identified in MDA-MB-468 (TNBC)” value is reported as “MHC-II (from 12 to 34 as MHC-IU binding peptides)”.
For “LMPNGPMR*ITSGPFEPDL (LMPNGPMRITSGPFEPDL; citrulline at R8; MOD_RES (8)..(8) Citrullinated Arginine) [SEQ ID NO: 75, PA2G4 peptide, R8(Cit.)]”, the “Cell surface MHC binding citrullinated peptide identified in MDA-MB-468 (TNBC)” value was “MHC-II (from 12 to 34 as MHC-IU binding peptides)”.
In the case of “LPPDAEGPHGQFVSEKR*VE (LPPDAEGPHGQFVSEKRVE; citrulline at R17; MOD_RES (17)..(17) Citrullinated Arginine) [SEQ ID NO: 22, CBR1 peptide, R17(Cit.)]”, the “Cell surface MHC binding citrullinated peptide identified in MDA-MB-468 (TNBC)” value is reported as “MHC-II (from 12 to 34 as MHC-IU binding peptides)”.
With “LQQIGR*ENPQLLQQISQHQEH (LQQIGRENPQLLQQISQHQEH; citrulline at R6; MOD_RES (6)..(6) Citrullinated Arginine) [SEQ ID NO: 108, RAD23B peptide, R6(Cit.)]” the “Cell surface MHC binding citrullinated peptide identified in MDA-MB-468 (TNBC)” value was “MHC-II (from 12 to 34 as MHC-IU binding peptides)”.
For “LR*AQEAPGQAEPPAAAEVQGAGN (LRAQEAPGQAEPPAAAEVQGAGN; citrulline at R2; MOD_RES (2)..(2) Citrullinated Arginine) [SEQ ID NO: 120, SLC9A3R1 peptide, R2(Cit.)]”, the “Cell surface MHC binding citrullinated peptide identified in MDA-MB-468 (TNBC)” value was “MHC-II (from 12 to 34 as MHC-IU binding peptides)”.
With “LR*ATDGKKKISTVVSSKEVNKFQMA (LRATDGKKKISTVVSSKEVNKFQMA; citrulline at R2; MOD_RES (2)..(2) Citrullinated Arginine) [SEQ ID NO: 122, SRP14 peptide, R2(Cit.)]” the “Cell surface MHC binding citrullinated peptide identified in MDA-MB-468 (TNBC)” value was “MHC-II (from 12 to 34 as MHC-IU binding peptides)”.
For “LR*IRSKKNEIMVAPDKDYFL (LRIRSKKNEIMVAPDKDYFL; citrulline at R2; MOD_RES (2)..(2) Citrullinated Arginine) [SEQ ID NO: 33, DYNLRB1 peptide, R2(Cit.)]”, the “Cell surface MHC binding citrullinated peptide identified in MDA-MB-468 (TNBC)” value was “MHC-II (from 12 to 34 as MHC-IU binding peptides)”.
For “MAR*LTWASHEKMHEGDEGPGHHHKPGLGEG (MARLTWASHEKMHEGDEGPGHHHKPGLGEG; citrulline at R3; MOD_RES (3)..(3) Citrullinated Arginine) [SEQ ID NO: 114, S100A9 peptide, R3(Cit.)]”, the “Cell surface MHC binding citrullinated peptide identified in MDA-MB-468 (TNBC)” value was “MHC-II (from 12 to 34 as MHC-IU binding peptides)”.
